This is an account of results in publication PMC5913281.

No constants are given. Whether binding was seen depends on the method and setting. Binding seen in cells or lysates may run through a third protein. Some entries that bind do so weakly or less than the wild type.

The assay deals with ErbB2/HER2 (human (endogenous in MKN45)) (UniProt P04626). Kind of assay: co-IP; endogenous proteins in MKN45 whole cell extracts; lysis buffer 50 mM Tris (pH 7.4), 100 mM NaCl, 0.1 mM EDTA; immunoprecipitation with anti-SOS1 or anti-HER2 antibody (normal rabbit IgG as control) at 4 °C overnight, Protein G Sepharose; immunoblot for HER2 and SOS1. On the technique in general: Immunoblotting shows a protein as a band on a membrane.

Consider “son of sevenless homolog 1 (SOS1) (from UniProt Q07889 1-1333)”, for which the binding result is “binds”.
